Assay results published in article PMC6397875.
Results are given in words; binding and its absence hold for the method and conditions named. Binding calls can cover weak binding; strength is not graded here.

Protein sequences, listed by entry. Tags and fused reporters are not part of them. Lines headed by an entry give the natural chain unless they say otherwise; changes in a name come on top.
UniProt A0A384WD26: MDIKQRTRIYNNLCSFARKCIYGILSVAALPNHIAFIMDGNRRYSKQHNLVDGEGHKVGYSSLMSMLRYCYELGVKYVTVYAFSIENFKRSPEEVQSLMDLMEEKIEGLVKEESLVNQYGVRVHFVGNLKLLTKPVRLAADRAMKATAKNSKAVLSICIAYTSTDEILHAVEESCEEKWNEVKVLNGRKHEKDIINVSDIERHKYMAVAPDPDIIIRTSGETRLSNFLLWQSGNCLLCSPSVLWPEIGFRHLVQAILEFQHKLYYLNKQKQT
UniProt A0A384WD08: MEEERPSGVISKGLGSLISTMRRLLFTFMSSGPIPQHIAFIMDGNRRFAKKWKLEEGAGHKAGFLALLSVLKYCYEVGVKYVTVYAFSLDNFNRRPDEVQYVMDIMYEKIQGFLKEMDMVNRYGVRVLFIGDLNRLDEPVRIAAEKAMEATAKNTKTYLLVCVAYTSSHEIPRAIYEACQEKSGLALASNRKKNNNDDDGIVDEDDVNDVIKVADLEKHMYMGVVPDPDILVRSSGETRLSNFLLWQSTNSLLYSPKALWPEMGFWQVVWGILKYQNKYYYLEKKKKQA
UniProt A0A384WD98: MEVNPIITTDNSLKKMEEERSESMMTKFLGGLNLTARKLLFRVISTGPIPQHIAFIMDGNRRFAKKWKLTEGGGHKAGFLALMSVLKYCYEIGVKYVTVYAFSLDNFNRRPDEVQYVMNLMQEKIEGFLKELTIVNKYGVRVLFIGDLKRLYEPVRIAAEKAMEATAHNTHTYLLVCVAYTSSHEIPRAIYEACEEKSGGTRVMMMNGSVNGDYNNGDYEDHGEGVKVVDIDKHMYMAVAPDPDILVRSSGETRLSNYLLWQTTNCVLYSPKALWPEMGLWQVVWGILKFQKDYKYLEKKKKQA

Target: PaCBP-Cub-LexA-VP16 (Parthenium argentatum (guayule))
Assay: two-hybrid; split-ubiquitin membrane yeast two-hybrid (MYTH) in strain THY.AP4; bait PaCBP-Cub-LexA-VP16, preys fused to NubG; growth on SC-Leu-Trp-Ade-His with 5, 10 or 25 mM 3-AT, 3 days at 30°C; β-galactosidase (ONPG, Miller units)

NubG-HA-PaCPT1 (from UniProt A0A384WD26) (enzyme)
binding: binds

NubG-HA-PaCPT2 (from UniProt A0A384WD08) (enzyme)
binding: binds

NubG-HA-PaCPT3 (from UniProt A0A384WD98) (enzyme)
binding: binds
